PubChem BioAssay AID504793, Drosophila RNAi Screening Center, 2011
The screen tested about 23,000 reagents; below is a random part of those with a known target gene and a result. Over the whole deposit, 62 (0.27%) got an active call. 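Calls come from follow-up tests whose scores are not deposited, so confirmed genes may have low counts here; counts are not normalised per plate.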 Raw values are not corrected between plates. No sequences are given here.

- Aim: 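Whole-genome screen for parts of the DNA damage checkpoint at G2/M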 (primary screen)
- Cell system: Drosophila S2R+ cells
- Reagent: long dsRNA against Drosophila genes, about 0.25 µg dsRNA per well
- Time to read-out: 4 days of dsRNA, then 4 hours of drug before read-out
- Challenge: doxorubicin 0.5 µM for 4 hours to cause double-strand breaks, in cells also given a low, harmless dose of dsRNA against nbs to sensitise the assay
- Measured: 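Mitotic index as the number of phospho-histone H3-positive cells in each well following doxorubicin, given as raw counts without normalisation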
- Scale: mitotic cells: higher = more cells in mitosis, weaker G2 arrest
- Hit rule: 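a call needs confirmation in secondary tests, with other dsRNAs and a check of mitotic timing without damage, not just a high primary count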
- Calls: active = confirmed in follow-up tests; inactive = not confirmed

The first 2 entries as a preview:
predicted target | PubChem SID | mitotic cells, replicate 1 | call
CG14694 | SID104194709 | 8 | inactive
Pka-R2 (Protein kinase, cAMP-dependent, regulatory subunit type 2) | SID104187301 | 12 | inactive

The listing, from the start:
predicted target | PubChem SID | mitotic cells, replicate 1 | call
CG14694 | SID104194709 | 8 | inactive
Pka-R2 (Protein kinase, cAMP-dependent, regulatory subunit type 2) | SID104187301 | 12 | inactive
Pka-R2 (Protein kinase, cAMP-dependent, regulatory subunit type 2) | SID104207758 | 2 | inactive
Ir52d (Ionotropic receptor 52d) | SID104186056 | 17 | inactive
CG14298 | SID104194569 | 10 | inactive
CG14961 | SID104188212 | 5 | inactive
Cyp6v1 (Cytochrome P450 6v1) | SID104200357 | 4 | inactive
Cyp6v1 (Cytochrome P450 6v1) | SID104207791 | 4 | inactive
CG3529 | SID104190161 | 6 | inactive
CG3529 | SID104203846 | 6 | inactive
Cnot4 (CCR4-NOT transcription complex subunit 4) | SID104182622 | 11 | inactive
Cnot4 (CCR4-NOT transcription complex subunit 4) | SID104182623 | 15 | inactive
mfas (midline fasciclin) | SID104196789 | 5 | inactive
mfas (midline fasciclin) | SID104207202 | 5 | inactive
YL-1 | SID104182557 | 2 | inactive
YL-1 | SID104202892 | 14 | inactive
wg (wingless) | SID104183428 | 4 | inactive
wg (wingless) | SID104208320 | 10 | inactive
CG15136 | SID104182228 | 4 | inactive
kn (knot) | SID104185988 | 5 | inactive
kn (knot) | SID104187429 | 11 | inactive
kn (knot) | SID104201251 | 6 | inactive
kn (knot) | SID104202903 | 2 | inactive
CG15458 | SID104200321 | 8 | inactive
CG2186 | SID104199630 | 9 | inactive
CG2186 | SID104203935 | 2 | inactive
CG4098 | SID104190191 | 13 | inactive
CG11698 | SID104194147 | 10 | inactive
rictor (rapamycin-insensitive companion of Tor) | SID104199863 | 3 | inactive
RpL38 (Ribosomal protein L38) | SID104187610 | 9 | inactive
cpb (capping protein beta) | SID104180601 | 2 | inactive
cpb (capping protein beta) | SID104208414 | 7 | inactive
CG18808 | SID104188331 | 7 | inactive
CG1773 | SID104186480 | 3 | inactive
RpS3 (Ribosomal protein S3) | SID104196630 | 10 | inactive
Tsc1 | SID104196682 | 7 | inactive
Tsc1 | SID104206187 | 10 | inactive
Prosalpha3T (Proteasome alpha3 subunit, Testis-specific) | SID104195018 | 11 | inactive
spn-F | SID104194267 | 9 | inactive
spn-F | SID104207872 | 3 | inactive
CG14712 | SID104194727 | 9 | inactive
Cap-H2 (Chromosome associated protein H2) | SID104194700 | 9 | inactive
CG12241 | SID104194273 | 7 | inactive
CG12241 | SID104205186 | 8 | inactive
corn (cornetto) | SID104190813 | 4 | inactive
corn (cornetto) | SID104201559 | 4 | inactive
corn (cornetto) | SID104205850 | 5 | inactive
GluProRS (Glutamyl-prolyl-tRNA synthetase) | SID104193887 | 5 | inactive
CG17994 | SID104184669 | 6 | inactive
Brr2 (Brr2 U5 snRNP complex subunit) | SID104190351 | 4 | inactive
OSCP1 | SID104186096 | 3 | inactive
baf (barrier to autointegration factor) | SID104182843 | 8 | inactive
baf (barrier to autointegration factor) | SID104205518 | 5 | inactive
CG9030 | SID104199931 | 4 | inactive
JMJD4 (Jumonji domain containing 4) | SID104182817 | 2 | inactive
JMJD4 (Jumonji domain containing 4) | SID104203914 | 6 | inactive
CG12744 | SID104185956 | 11 | inactive
CG34446 | SID104203238 | 9 | inactive
Flacc (Fl(2)d-associated complex component) | SID104199832 | 8 | inactive
Flacc (Fl(2)d-associated complex component) | SID104204046 | 2 | inactive
lva (lava lamp) | SID104198195 | 6 | inactive
lva (lava lamp) | SID104206138 | 11 | inactive
Or85d (Odorant receptor 85d) | SID104196559 | 7 | inactive
Or85d (Odorant receptor 85d) | SID104205200 | 7 | inactive
Ntmt (N-terminal methyltransferase) | SID104186416 | 7 | inactive
Ntmt (N-terminal methyltransferase) | SID104207191 | 3 | inactive
Nup98-96 (Nucleoporin 98-96kD) | SID104194001 | 5 | inactive
Nup98-96 (Nucleoporin 98-96kD) | SID104194002 | 12 | inactive
CG6421 | SID104187212 | 3 | inactive
CG6421 | SID104208088 | 6 | inactive
fok (fledgling of Klp38B) | SID104181895 | 9 | inactive
fok (fledgling of Klp38B) | SID104202937 | 6 | inactive
Sas-6 (Spindle assembly abnormal 6) | SID104194853 | 24 | inactive
St4 (Sulfotransferase 4) | SID104186800 | 3 | inactive
CG17896 | SID104198294 | 9 | inactive
CG17896 | SID104207016 | 8 | inactive
